Library screen at single concentrations

Mtb glucose medium: 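Whole-cell growth test on Mycobacterium tuberculosis, read after 3 days in glucose-containing 7H9 medium; the read-out is not stated. Compounds at 500 µM. The record gives no direction; compounds that gave an IC50 in retests scored well above the rest, so higher reads as more growth inhibition. Of about 18,000 compounds tested this way, about 1,400 (7.9%) reached 50% or more in at least one test.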
Mtb cholesterol medium: 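Growth of Mycobacterium tuberculosis over 4 days (cholesterol / DPPC medium with tyloxapol); the read-out is not stated. Concentration: 500 µM. Direction is inferred from retests: higher values go with more growth inhibition. About 18,000 compounds were tested under these conditions; 5% (about 900) showed 50% or more at least once.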

Each number is a percent effect as filed.
How 0% and 100% were set is not recorded. Most values in the screen are low, and negative values occur.
The compounds are a random part of those screened.

compound | Mtb glucose medium | Mtb cholesterol medium
CC(C)(C)NC(=O)CSC1CCOCC1 | -4.291 | 2.45
NCc1cn2c(n1)CCCC2 | 12.97 | 1.825
Cn1cc(Br)cc1C(=O)NCCCNc1ncccn1 | 61.13 | 36.95
CN(C)CC(=O)Nc1cc(Cl)cc2c1OCC2 | 1.472 | -3.074
c1cncc(CN2CCCOC(CN3CCCC3)C2)c1 (configuration not stated) | 12.85 | 4.623
COc1ncccc1NC(=O)NCc1cc[nH]n1 | 11.79 | 4.631
Cn1nccc1CNC(=O)c1cc2c([nH]c1=O)CCC2 | 1.24 | 0.1446
CCOC(=O)c1conc1Br | -13.19 | -4.111
COCc1nc(C(=O)NC2CCN(C)C2=O)cs1 (configuration not stated) | 4.781 | 10.18
CN(CC1(CO)CC1)c1cc(C2CC(N)C2)nc(N)n1 (configuration not stated) | 16.13 | 5.343
O=c1oc(-c2ccccc2)nn1CN1CCCSCC1 | 2.039 | -7.838
CO[C@H]1CN(C(C)C)C[C@@H]1NC(=O)c1cnc[nH]1 | 11.66 | 10.07
CCc1ccsc1C(=O)NC(C)c1ncon1 (configuration not stated) | 23.61 | 16.11
Cc1[nH]ncc1CCCNC(=O)NCCNS(C)(=O)=O | 11.81 | 13.97
Cc1nsc(N2CCCN(c3ccccn3)CC2)n1 | 44.79 | 25.88
CCCC(N)CNS(=O)(=O)c1ccc(C)cc1F (configuration not stated) | 24.7 | 29.42
C[C@H]1CN(C(=O)C(C)(C)C)CCN1S(C)(=O)=O | -6.786 | -17.75
Cc1cc(C)cc(C2(C(=O)N(C)CC(N)=O)CCC2)c1 | 9.475 | 2.298
Cc1ccoc1C(=O)NCc1cccc(S(N)(=O)=O)c1 | 11.32 | -13.1
Cc1cc(-c2nc(C3CCOC3)no2)n(C)n1 (configuration not stated) | 13.35 | 14.87
CNC(=O)C1CCCCN1C(=O)c1ccc(Cl)o1 (configuration not stated) | 11.66 | 5.868
O=C(Cn1cnnn1)NCC1SCCc2ccccc21 (configuration not stated) | 9.93 | -0.07561
CCNC(=O)N1CCC(NC(=O)c2cc(Cl)c[nH]2)C1 (configuration not stated) | 14.52 | 0.523
COc1cccc(C(N)C2CC2)n1 (configuration not stated) | -4.176 | -2.184
Cc1noc(Cl)c1CC(=O)N1CCN(CC(C)O)CC1 (configuration not stated) | -2.216 | -11.95

Once more, the final 2:

compound,Mtb glucose medium,Mtb cholesterol medium
COc1cccc(C(N)C2CC2)n1 (configuration not stated),-4.176,-2.184
Cc1noc(Cl)c1CC(=O)N1CCN(CC(C)O)CC1 (configuration not stated),-2.216,-11.95

Measurements from “University of Dundee, Small-Polar-MMV Screening Library” (2021), ChEMBL document CHEMBL3988442.